Results are given in words; binding and its absence hold for the method and conditions named. In cells and extracts the contact can be indirect. Some binding calls cover weakened binding; strength is not graded here.
Molecular target: T1, tumor necrosis factor receptor-associated factor 6 (TRAF6) (mouse (endogenous in BMMs)) (UniProt P70196)
T1 sequence: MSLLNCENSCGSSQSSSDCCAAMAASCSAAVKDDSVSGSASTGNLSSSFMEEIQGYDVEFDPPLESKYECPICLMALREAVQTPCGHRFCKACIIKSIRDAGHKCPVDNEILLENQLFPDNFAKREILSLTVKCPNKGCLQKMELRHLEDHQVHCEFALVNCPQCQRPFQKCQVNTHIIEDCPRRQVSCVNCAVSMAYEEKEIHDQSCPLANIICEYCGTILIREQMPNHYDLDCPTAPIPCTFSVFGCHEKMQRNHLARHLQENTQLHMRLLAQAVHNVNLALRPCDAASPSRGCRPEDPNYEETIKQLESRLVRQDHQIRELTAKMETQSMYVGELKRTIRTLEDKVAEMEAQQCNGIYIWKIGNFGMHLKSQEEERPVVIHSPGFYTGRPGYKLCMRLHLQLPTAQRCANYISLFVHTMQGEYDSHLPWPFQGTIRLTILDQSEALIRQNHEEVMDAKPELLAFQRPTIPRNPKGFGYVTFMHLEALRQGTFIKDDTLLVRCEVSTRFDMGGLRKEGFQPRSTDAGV
Experiment: co-IP; total proteins from BMM (RIPA lysate) pre-cleared with control IgG and protein A/G beads; anti-TRAF6 and protein A/G beads overnight; washed 3 times with lysis buffer; WB for CYLD and ubiquitin

B1: cylindromatosis (CYLD) (enzyme, UniProt Q80TQ2 1-952)
chain: MSSGLWSQEKVTSPYWEERIFYLLLQECSVTDKQTQKLLKVPKGSIGQYIQDRSVGHSRVPSTKGKKNQIGLKILEQPHAVLFVDEKDVVEINEKFTELLLAITNCEERLSLFRNRLRLSKGLQVDVGSPVKVQLRSGEEKFPGVVRFRGPLLAERTVSGIFFGVELLEEGRGQGFTDGVYQGKQLFQCDEDCGVFVALDKLELIEDDDNGLESDFAGPGDTMQVEPPPLEINSRVSLKVGESTESGTVIFCDVLPGKESLGYFVGVDMDNPIGNWDGRFDGVQLCSFASVESTILLHINDIIPDSVTQERRPPKLAFMSRGVGDKGSSSHNKPKVTGSTSDPGSRNRSELFYTLNGSSVDSQQSKSKNPWYIDEVAEDPAKSLTEMSSDFGHSSPPPQPPSMNSLSSENRFHSLPFSLTKMPNTNGSMAHSPLSLSVQSVMGELNSTPVQESPPLPISSGNAHGLEVGSLAEVKENPPFYGVIRWIGQPPGLSDVLAGLELEDECAGCTDGTFRGTRYFTCALKKALFVKLKSCRPDSRFASLQPVSNQIERCNSLAFGGYLSEVVEENTPPKMEKEGLEIMIGKKKGIQGHYNSCYLDSTLFCLFAFSSALDTVLLRPKEKNDIEYYSETQELLRTEIVNPLRIYGYVCATKIMKLRKILEKVEAASGFTSEEKDPEEFLNILFHDILRVEPLLKIRSAGQKVQDCNFYQIFMEKNEKVGVPTIQQLLEWSFINSNLKFAEAPSCLIIQMPRFGKDFKLFKKIFPSLELNITDLLEDTPRQCRICGGLAMYECRECYDDPDISAGKIKQFCKTCSTQVHLHPRRLNHSYHPVSLPKDLPDWDWRHGCIPCQKMELFAVLCIETSHYVAFVKYGKDDSAWLFFDSMADRDGGQNGFNIPQVTPCPEVGEYLKMSLEDLHSLDSRRIQGCARRLLCDAYMCMYQSPTMSLYK
binding: binds

From publication PMC10813535
